{"source": "patent US20150087610A1", "about": "“Method of Modifying Fertility” (Monell Chemical Senses Center, priority 2012, published 2015)", "system": "mouse spermatids", "test": "Calcium imaging of mouse spermatids with bitter tastants", "format": "cell-based", "conditions": "0.01, 0.1 and 1 μM", "protocol": "Eight adult male mice of each genotype: C57BL/6 and Gnat^−/− mice, were sacrificed, and the testis and caudal epididymis were immediately removed and transferred into HS solution containing (mM): 135 NaCl, 5 KCl, 2 CaCl2, 1 MgCl2, 30 Hepes, 10 glucose, 10 lactic acid, and 1 pyruvic acid (pH adjusted to 7.4 with NaOH) (Xia et al., 2007). For isolation of spermatids, seminiferous tubules from mouse testicle were dissected out and placed in a […] containing 3 ml of HS medium. The tissue was finely minced and gently triturated with a fire-polished pipette, and the mixture was filtered with a 100 μm nylon cell strainer (BD Falcon, Bedford, Mass.). The dissociated cells were collected in a 1.5 ml plastic tube, and washed once in HS medium by centrifugation at 300 g for 4 min and resuspended in HS medium. […]\nImaging of calcium responses was conducted as previously described (Gomez et al, 2005). […] The change in fluorescence ratio (F=F340/F380) was recorded for regions-of-interest drawn on the cells.\nTo analyze the dose-dependent calcium responses, the response intensity (FN) was normalized and expressed as ΔF/F0 value: ΔF/F0=(F−F0)/F0. Here F0 is the fluorescence at the beginning of stimulation, i.e., time 0, and F is the peak fluorescence ratio evoked by the stimulation. […]", "note": "For at least one compound, name, drawing or mass did not settle the structure."}
{"compound": "CC(C)(O)[C@@H]1[C@H]2OC(=O)[C@@H]1[C@]1(O)C[C@H]3O[C@]34C(=O)O[C@H]2[C@]14C", "note": "[picrotin]", "values": [{"measurement": "calcium response at low concentrations", "value": "No responses"}]}
